A number of entries come with more than one value. This list holds those alone. An entry can have further records. Results that share an entry differ for a reason that is not stated; dose, time, organism, isomer or construct need not be as stated for each record.
Target: mu-opioid receptor (C6mu membranes) (Rattus norvegicus, UniProt P33535)
Test: [35S]GTPγS binding in C6mu cell membranes
Type: biochemical
Conditions: BMS-986122 10 uM + BMS-986124 50 uM

The chains behind the UniProt entries cited, without tags or fusion partners.
UniProt P33535, whole entry: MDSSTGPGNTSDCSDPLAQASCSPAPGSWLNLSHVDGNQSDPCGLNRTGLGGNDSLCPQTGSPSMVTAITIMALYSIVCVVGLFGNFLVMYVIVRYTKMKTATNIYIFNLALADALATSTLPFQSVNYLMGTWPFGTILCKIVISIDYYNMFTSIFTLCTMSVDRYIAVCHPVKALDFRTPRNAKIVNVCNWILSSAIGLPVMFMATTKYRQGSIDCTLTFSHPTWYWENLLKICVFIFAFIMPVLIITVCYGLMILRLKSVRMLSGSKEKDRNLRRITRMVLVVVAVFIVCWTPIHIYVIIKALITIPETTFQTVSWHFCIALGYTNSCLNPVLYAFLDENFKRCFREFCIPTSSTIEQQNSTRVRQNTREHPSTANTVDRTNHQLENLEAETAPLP

**Q.** How did the “DAMGO potency enhancement vs vehicle with co-addition of BMS-986122 and BMS-986124” value turn out when `COc1cc(Br)ccc1C1SCCN1S(=O)(=O)c1ccc(Cl)cc1` (stereo not shown) was run?
**A.** Its value is 2 fold and less than 2 fold.

From patent publication US9784740B2 (priority 2013, dated 2017)
